17 compounds from PubChem BioAssay (NCATS) can be followed below.

The list shows a part of the results. Further columns of the screen follow, without active or inactive calls. Compounds called inactive in the main read-out are mostly missing here. Potencies come from curve fits of mixed quality, noted in brackets.

This test can be described thus: qHTS for identification of novel therapeutic agents for treatment of microphthalmiaassociated transcription factor (MiT) renal cell carcinoma (RCC) (AID 1963991). The note with it: CellTiter-Glo, 48 h; for z-score: stronger effect = lower value. The procedure, abridged:
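Curves over 11 concentrations were fitted to CellTiter-Glo luminescence, scaled between empty wells (0%) and DMSO (100%) viability. Cells were UOK109, UOK124 and UOK145 TFE3-fusion RCC lines at 500/well, exposed 48 hours at 37 C.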
Background: qHTS replaces the single test concentration by a dilution series.

The mark [1] stands for this setting: TFE3-RCC UOK109 viability, measured here: UOK109 Z-AUC.
[2] abbreviates: TFE3-RCC viability, measured here: UOK124 Z-AUC.
Setting [3] is: TFE3-RCC viability, measured here: UOK124 cell viability.
Where [4] appears, read: TFE3-RCC viability, measured here: UOK145 Z-AUC.
[5] abbreviates: TFE3-RCC viability, measured here: UOK145 cell viability.

`CNC(=O)c1ccc(Nc2cc(Nc3ccccc3S(=O)(=O)C(C)C)c3cc[nH]c3n2)nc1` gave a z-score under setting [1] of -0.0335, a z-score under setting [2] of -0.654 and a z-score under setting [4] of -0.00623. Moreover, the AC50 was 4.69 µM [falling, full curve] under setting [3] and 18.7 µM [falling, partial curve] under setting [5].
For `CCCCN1CCC(CNC(=O)c2c3n(c4ccccc24)CCCO3)CC1`, the z-score reads like this: under setting [1], -1.33; under setting [2], 0.54; under setting [4], -0.905. Besides, the AC50 is 26.4 µM [falling, single point] under setting [3] and 8.33 µM [falling, full curve] under setting [5].
Consider `CCOC(=O)[C@H](CCc1ccccc1)N[C@H]1CS[C@H](c2cccs2)CN(CC(=O)O)C1=O`, for which the z-score was -0.634 under setting [1], -0.00136 under setting [2] and -0.313 under setting [4]. The AC50 runs as follows: under setting [3], 4.18 µM [falling, full curve]; under setting [5], 2.64 µM [falling, full curve].
As for `N#CC(=C1Nc2ccccc2S1)c1ccnc(OCc2ccc(CN3CCOCC3)cc2)n1`, the z-score reads like this: under setting [1], -2.51; under setting [2], 0.377; under setting [4], -0.744. In addition, the AC50 by setting is: under setting [3], 8.33 µM [falling, full curve]; under setting [5], 13.2 µM [falling, partial curve].
`C=CCNc1c(O)cc2c(O)c1C[C@@H](C)C[C@H](OC)[C@@H](O)[C@@H](C)C=C(C)[C@H](OC(N)=O)[C@@H](OC)C=CC=C(C)C(=O)N2`: the z-score was -0.0125 under setting [1], -0.38 under setting [2] and -1.41 under setting [4]. For the same compound, the AC50 is 0.469 µM [falling, full curve] under setting [3] and 0.59 µM [falling, full curve] under setting [5].
In the case of `N#Cc1ccc(COC[C@H]2O[C@@H](n3c(NCc4ccc(Cl)c(Cl)c4)nc4c(N)ncnc43)[C@@H](O)[C@@H]2O)cc1`, the z-score under setting [1] stood at 0.483, the z-score under setting [2] is -2.11 and the z-score under setting [4] amounted to 0.403. Moreover, the AC50 under setting [3] is 0.118 µM [falling, full curve] and the AC50 under setting [5] was 7.43 µM [falling, partial curve].
Consider `C[C@@H]1CN(Cc2ccc(F)cc2)[C@@H](C)CN1C(=O)c1cc2c(C(=O)C(=O)N(C)C)cn(C)c2cc1Cl`, for which the z-score is, setting by setting: under setting [1], 0.28; under setting [2], 1.34; under setting [4], 0.446. In addition, the AC50 by setting is: under setting [3], 0.00743 µM [rising, full curve, poor fit]; under setting [5], 33.2 µM [falling, single point].
For the compound `CC1(C)S[C@H]2[C@H](NC(=O)[C@@H](N)c3ccc(O)cc3)C(=O)N2[C@@H]1C(=O)O`, the z-score under setting [1] is -2.4, the z-score under setting [2] is 0.355 and the z-score under setting [4] was found to be 0.388. Also, the AC50 by setting is: under setting [3], 3.72 µM [falling, full curve]; under setting [5], 2.35 µM [falling, full curve].
`COc1cc2c(cc1O)CCC1C2CC[C@@]2(C)C1CC[C@@H]2O` (stereo not given in full): the z-score is 0.265 under setting [1], -0.462 under setting [2] and 0.285 under setting [4]. The AC50 is 3.32 µM [falling, full curve] under setting [3] and 7.43 µM [falling, full curve] under setting [5].
Regarding `O=C1NC(=O)C(=Cc2ccc(-c3ccc(F)cc3O)o2)S1`, the z-score runs as follows: under setting [1], 0.644; under setting [2], -0.173; under setting [4], 0.329. Besides, the AC50 runs as follows: under setting [3], 14.8 µM [falling, partial curve, poor fit]; under setting [5], 8.33 µM [falling, partial curve, poor fit].
`COc1ccc2c3n(c(=NC(=O)c4cccnc4)nc2c1OC)CCN3`: the z-score was -0.468 under setting [1], 1.28 under setting [2] and 0.0154 under setting [4]. In addition, the AC50 was 0.59 µM [falling, full curve] under setting [3] and 3.32 µM [falling, full curve] under setting [5].
On to `O=C(c1ccc(F)c(F)c1Nc1ccc(I)cc1F)N1CC(O)([C@H]2CCCCN2)C1`, for which the z-score was -1.24 under setting [1], -1.05 under setting [2] and 0.125 under setting [4]. Further, the AC50 is 14.8 µM [falling, partial curve] under setting [3] and 16.6 µM [falling, partial curve] under setting [5].
Regarding `O=C(C=Cc1cccnc1)NCCCCC1CCN(C(=O)c2ccccc2)CC1`, the z-score is, setting by setting: under setting [1], 0.841; under setting [2], -2.88; under setting [4], -3.25. Further, the AC50 is, setting by setting: under setting [3], 0.0526 µM [falling, full curve]; under setting [5], 0.0166 µM [falling, full curve, poor fit].
For `COCCCN1CCC(NC(=O)c2cc(Cl)c(N)c3c2OCC3)CC1`, the z-score is, setting by setting: under setting [1], 0.261; under setting [2], 0.479; under setting [4], -0.0583. For the same compound, the AC50 was 29.6 µM [falling, partial curve, poor fit] under setting [3] and 18.7 µM [falling, partial curve, poor fit] under setting [5].
As for `CO[C@@H]1[C@@H](O)[C@H](O)[C@@H](n2c3c(Cl)cccc3c3c4c(c5c6cccc(Cl)c6[nH]c5c32)C(=O)NC4=O)O[C@@H]1CO`, the z-score reads like this: under setting [1], -0.294; under setting [2], 0.0799; under setting [4], -0.442. Also, the AC50 is 0.662 µM [falling, full curve] under setting [3] and 1.05 µM [falling, full curve] under setting [5].
Compound `COc1ccc2c(c1OC)C(=O)OC2[C@H]1c2c(cc3c(c2OC)OCO3)CCN1C` (stereo not given in full) had a z-score under setting [1] of -0.238, a z-score under setting [2] of 0.17 and a z-score under setting [4] of -0.356. Besides, the AC50 was 0.187 µM [falling, full curve] under setting [3] and 0.332 µM [falling, full curve] under setting [5].
For `CN[C@H]1[C@@H](O)[C@@H]2O[C@@H]3O[C@H](C)CC(=O)[C@]3(O)O[C@@H]2[C@@H](NC)[C@H]1O`, the z-score under setting [1] is -1.58, the z-score under setting [2] was -0.0855 and the z-score under setting [4] is -0.916. Also, the AC50 runs as follows: under setting [3], 18.7 µM [falling, partial curve]; under setting [5], 1.18 µM [falling, full curve].

A word on the AC50: it is the concentration giving half of the maximal activity seen.
